{
  "sequences": {"note": "Protein sequences, listed by entry. Tags and fused reporters are not part of them. Lines headed by an entry give the natural chain unless they say otherwise; changes in a name come on top.", "UniProt P18054": "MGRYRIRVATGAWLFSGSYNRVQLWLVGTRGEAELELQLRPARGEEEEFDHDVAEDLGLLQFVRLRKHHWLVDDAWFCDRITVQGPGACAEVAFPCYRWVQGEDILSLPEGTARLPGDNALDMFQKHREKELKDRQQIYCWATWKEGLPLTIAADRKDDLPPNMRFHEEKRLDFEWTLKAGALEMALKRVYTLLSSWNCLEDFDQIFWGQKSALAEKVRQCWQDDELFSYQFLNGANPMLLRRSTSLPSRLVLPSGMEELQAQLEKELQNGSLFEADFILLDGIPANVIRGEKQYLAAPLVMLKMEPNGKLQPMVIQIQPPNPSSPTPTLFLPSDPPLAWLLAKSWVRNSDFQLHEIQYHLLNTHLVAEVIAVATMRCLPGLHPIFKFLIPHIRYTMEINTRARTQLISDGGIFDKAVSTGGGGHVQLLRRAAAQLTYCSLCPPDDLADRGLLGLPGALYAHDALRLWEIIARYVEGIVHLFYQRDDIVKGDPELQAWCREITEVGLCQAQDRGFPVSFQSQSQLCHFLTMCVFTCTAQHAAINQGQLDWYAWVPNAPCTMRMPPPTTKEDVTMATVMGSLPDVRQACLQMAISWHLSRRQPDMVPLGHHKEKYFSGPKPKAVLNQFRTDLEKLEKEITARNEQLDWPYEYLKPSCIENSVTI"},
  "source": "PubChem BioAssay AID1671190",
  "about": "(National Center for Advancing Translational Sciences (NCATS), 2021)",
  "note": "Several values for one entry are separate records, joined by “and”; a condition that tells them apart may be missing. Equal values may be shown once. About 6,100 (1.1%) of roughly 580,000 compounds were called active. Inconclusive means that the source gave no clear call. Such entries were picked first, then a sample of the others. Calls come from the whole dose curve; as a rule, active = well fitted inhibition curve with a large enough effect; inconclusive = small, poorly fitted or top-dose-only effect, or another doubt; inactive = no such curve, though single readings can be large or run the other way. Potencies beside an inconclusive call are fits to weak or partial responses and may not hold up. Potency is the fitted concentration of half-maximal effect.",
  "data": [
    {"molecular_target": "Polyunsaturated fatty acid lipoxygenase ALOX12 (Homo sapiens) (UniProt P18054)", "test": "Primary qHTS assay for inhibitors of human arachidonate 12S-lipoxygenase (ALOX12): Round 2", "details": "purified 12hLO, xylenol orange hydroperoxide absorbance; series mostly up to 108 µM", "how_it_was_run": "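Purified human 12hLO (150 nM final) in 25 mM Hepes, 0.01% Triton X-100, pH 7.0 was preincubated 15 min at room temperature with compound. Then 40 uM arachidonic acid was added, 30 min. Hydroperoxide was read by Fe-XO absorbance ratio 573/405 nm.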", "values": [
      {"smiles": "CCOc1ccccc1NC(=O)Cn1nc2n(c1=O)CCCC2", "Potency": "inactive"},
      {"smiles": "COc1cc(OC)c(NC(=O)N(C)CCc2noc(C(=O)NCc3ccccc3)n2)cc1Cl", "Potency": "inconclusive: 50.1 µM [inhibitor, partial curve, poor fit]"},
      {"smiles": "O=C1NC2(CCN(CC3CC3)CC2)COc2ccccc21", "Potency": "inconclusive: 31.6 µM [inhibitor, single point]"},
      {"smiles": "Cc1ccc2nc(-c3ccc(NC(=O)COC(=O)c4ccc(=O)[nH]c4)cc3)sc2c1", "Potency": "inactive"},
      {"smiles": "O=C(O)c1ccccc1NS(=O)(=O)c1ccc(NNC(=S)Nc2ccc(OC(F)F)cc2)c([N+](=O)[O-])c1", "Potency": "active: 3.55 µM"},
      {"smiles": "CCOc1ccccc1CNc1nc2ccccc2n1C", "Potency": "inconclusive: 112 µM [inhibitor, single point]"},
      {"smiles": "CCNC(=S)N/N=C(\\C)c1ccc2ccccc2c1OC(F)F", "Potency": "active: 39.8 µM"},
      {"smiles": "Oc1c(Cl)cc(Cl)c2cccnc12", "Potency": "inconclusive: 3.16 µM [inhibitor, partial curve, poor fit] and active: 20 µM"},
      {"smiles": "COc1ccc2oc(-c3ccccc3C)cc(=O)c2c1", "Potency": "inconclusive: 44.7 µM [inhibitor, partial curve, poor fit]"},
      {"smiles": "Cc1ccc(NC(=O)CSc2nnc(-c3cc4occc4n3C)n2-c2ccccc2C)c(C)c1", "Potency": "inconclusive: 100 µM [inhibitor, partial curve, poor fit]"},
      {"smiles": "CCOC(=O)c1[nH]c(=S)n(-c2ccccc2)c1C(=O)OCC", "Potency": "active: 7.08 µM"},
      {"smiles": "CCCOc1ccc(NC(=O)COc2ccccc2C)c2cccnc12", "Potency": "inconclusive: 50.1 µM [inhibitor, single point]"},
      {"smiles": "CCSc1nc2c(c(=O)n(C)c(=O)n2C)n1Cc1ccccc1Cl", "Potency": "inconclusive: 3.98 µM [inhibitor, full curve, poor fit]"},
      {"smiles": "Cc1cc(S(=O)(=O)N2CCN(CC(=O)NCCc3cccs3)CC2)ccc1Br", "Potency": "inactive"},
      {"smiles": "CCn1c(=O)c(-c2noc(C(=O)N3CCC(c4ccccc4)C3)n2)nn(-c2ccc(F)cc2)c1=O", "note": "(stereo unspecified)", "Potency": "inactive"},
      {"smiles": "O=C(CSc1nnc(SCc2ccccc2)s1)N/N=C/C=C/c1ccco1", "Potency": "inconclusive: 50.1 µM [inhibitor, partial curve, poor fit]"},
      {"smiles": "COc1ccc(OC)c(CNC(=O)c2ncoc2-c2cccc(Cl)c2)c1", "Potency": "inconclusive: 79.4 µM [inhibitor, partial curve, poor fit]"},
      {"smiles": "COc1ccc(S(=O)(=O)N2CCC(N3CCCCC3)CC2)cc1", "Potency": "inconclusive: 7.94 µM [inhibitor, partial curve, poor fit]"},
      {"smiles": "CSc1nc(NS(=O)(=O)c2cc(Br)ccc2Br)cc(=O)[nH]1", "Potency": "inconclusive: 31.6 µM [inhibitor, single point]"},
      {"smiles": "COC(=O)c1cn([C@H]2CO[C@H]3[C@@H]2OC[C@@H]3NC(=O)C2CC2)nn1", "Potency": "inconclusive: 126 µM [inhibitor, partial curve, poor fit]"},
      {"smiles": "CC(NC(=O)/C(C#N)=C/c1ccc(Cl)c([N+](=O)[O-])c1)c1ccccc1", "note": "(stereo unspecified)", "Potency": "inconclusive: 35.5 µM [inhibitor, partial curve]"},
      {"smiles": "CCNCc1ccc(-c2ccc(Cl)cc2)o1", "Potency": "inconclusive: 8.91 µM [inhibitor, partial curve, poor fit]"},
      {"smiles": "Cc1ccc(C(=O)N2CCCn3ccnc3C2C(C)C)c(=O)[nH]1", "note": "(stereo unspecified)", "Potency": "inactive"},
      {"smiles": "COc1ccc(-c2c(-c3ccc(C)c(C)c3)[nH]c3c2c(=O)[nH]c(=O)n3C)cc1", "Potency": "inactive"},
      {"smiles": "CCOC(=O)N1CCC(N(C(=O)Nc2ccc(Cl)c(Cl)c2)C(C)CC)CC1", "note": "(stereo unspecified)", "Potency": "inactive"},
      {"smiles": "CN(C)c1ccc(NS(=O)(=O)c2ccc(-c3csnn3)cc2)cc1", "Potency": "inconclusive: 20 µM [inhibitor, partial curve, poor fit]"},
      {"smiles": "Cc1cc(C)c2oc(C(=O)NCCc3ccc(S(N)(=O)=O)cc3)cc(=O)c2c1", "Potency": "inconclusive: 14.1 µM [inhibitor, partial curve, poor fit]"},
      {"smiles": "CCn1c(NCc2ccccc2NS(=O)(=O)c2ccc(C)cc2)nc2ccccc21", "Potency": "inactive"},
      {"smiles": "Cc1ccc(NC(=S)NN)cc1", "Potency": "inconclusive: 50.1 µM [inhibitor, partial curve, poor fit]"},
      {"smiles": "O=C(NCC1CCCCC1)c1cc(Br)ccc1Cl", "Potency": "inconclusive: 3.98 µM [inhibitor, full curve, poor fit]"},
      {"smiles": "COc1ccc(Cl)cc1NC(=O)C(=O)NCc1ccc(Cl)cc1", "Potency": "inactive"},
      {"smiles": "CC(C)c1noc(C2CCCN(C(=O)NC(C)(C)C)CCC(=O)NCC2)n1", "note": "(stereo unspecified)", "Potency": "inactive"},
      {"smiles": "COc1ccc(CCNC(=O)c2nnn3c2COC(c2ccc(C)cc2)C3)cc1OC", "note": "(stereo unspecified)", "Potency": "inactive"},
      {"smiles": "CCOc1ccc(C(=O)Nc2cc(-c3nc4ccccc4[nH]3)ccc2C)cc1[N+](=O)[O-]", "Potency": "inconclusive: 35.5 µM [inhibitor, single point]"},
      {"smiles": "O=C(CNS(=O)(=O)c1ccc(Br)s1)N1CCN(c2ccc(F)cc2)CC1", "Potency": "inconclusive: 56.2 µM [inhibitor, partial curve, poor fit]"},
      {"smiles": "CCOC(=O)c1sc(N2C(=O)C(O)=C(C(=O)c3ccco3)C2c2ccc(C)o2)nc1C", "note": "(stereo unspecified)", "Potency": "inconclusive: 50.1 µM [inhibitor, partial curve, poor fit]"},
      {"smiles": "O=C(Nc1cccc(-c2ccc(N3CCCCC3)nn2)c1)c1ccc(Br)o1", "Potency": "inconclusive: 39.8 µM [inhibitor, partial curve, poor fit]"},
      {"smiles": "O=C(NCc1ccccn1)C1CCN(Cc2cc3n(n2)CCCNC3)CC1", "Potency": "inconclusive: 7.94 µM [inhibitor, full curve]"},
      {"smiles": "Cn1c(=O)c2c(-c3ccc(F)cc3)[nH]cc2n(C)c1=O", "Potency": "inconclusive: 35.5 µM [inhibitor, single point]"},
      {"smiles": "C[n+]1cccc(C(=O)NNC(=O)C23CC4CC(CC(C4)C2)C3)c1", "Potency": "inconclusive: 35.5 µM [inhibitor, partial curve]"},
      {"smiles": "O=C(C[N+]1(CC#Cc2ccccc2)CCOCC1)c1ccccc1", "Potency": "inconclusive: 112 µM [inhibitor, partial curve, poor fit]"},
      {"smiles": "Cc1cccc(CN2CCN(C3CN(Cc4cn(Cc5ccc(F)cc5)nn4)S(=O)(=O)C3)CC2)c1", "note": "(stereo unspecified)", "Potency": "inconclusive: 39.8 µM [inhibitor, partial curve]"},
      {"smiles": "CCC(C)/C(C)=N/Nc1ccc(S(N)(=O)=O)cc1[N+](=O)[O-]", "note": "(stereo unspecified)", "Potency": "inconclusive: 50.1 µM [inhibitor, partial curve, poor fit]"},
      {"smiles": "O=C(COc1cccc(-n2cnnc2)c1)NC1CCCc2c1[nH]c1ccccc21", "note": "(stereo unspecified)", "Potency": "inconclusive: 44.7 µM [inhibitor, partial curve, poor fit]"},
      {"smiles": "O=C1NC(=O)/C(=C\\c2ccc(Br)o2)S1", "Potency": "inconclusive: 35.5 µM [inhibitor, partial curve, poor fit]"},
      {"smiles": "Cc1ccccc1NC(=S)N/N=C/C(C)c1ccccc1", "note": "(stereo unspecified)", "Potency": "inconclusive: 44.7 µM [inhibitor, partial curve]"},
      {"smiles": "Oc1ccccc1CNc1cnc2ccccc2c1", "Potency": "inconclusive: 35.5 µM [inhibitor, partial curve, poor fit]"},
      {"smiles": "CN1CCN(CCC2(c3ccccc3)CCOC(C)(C)C2)CC1", "note": "(stereo unspecified)", "Potency": "inconclusive: 12.6 µM [inhibitor, full curve]"},
      {"smiles": "COc1cc2c(cc1OC)C(CNC(=O)c1ccccc1)N(C(=O)Nc1ccccc1F)CC2", "note": "(stereo unspecified)", "Potency": "inactive"},
      {"smiles": "Cc1ccc(C(=O)c2sc(Nc3ccc(F)cc3)c(C#N)c2N)cc1", "Potency": "inconclusive: 50.1 µM [inhibitor, partial curve, poor fit]"},
      {"smiles": "O=C(O)/C=C/C(O)c1ccc(Cl)cc1", "note": "(stereo unspecified)", "Potency": "inconclusive: 50.1 µM [inhibitor, partial curve, poor fit]"},
      {"smiles": "COCCn1c(SCCOc2cccc(Br)c2)nnc1-c1ccncc1", "Potency": "inconclusive: 79.4 µM [inhibitor, single point]"},
      {"smiles": "COC(=O)C1=C(C)N(c2cccc(C(C)=O)c2)C(=O)C1", "Potency": "inconclusive: 63.1 µM [inhibitor, partial curve, poor fit]"},
      {"smiles": "O=c1[nH]c(/C=C/c2ccccc2[N+](=O)[O-])nc2ccccc12", "Potency": "inactive"},
      {"smiles": "O=C(NCC1(COc2ccccc2)C[C@@H](O)[C@@H](O)C1)C1CCOCC1", "note": "(stereo partly specified)", "Potency": "inactive"},
      {"smiles": "CCn1nccc1C(=O)N1C[C@@H](F)C[C@H]1C(=O)N1CCCCC1", "Potency": "inactive"},
      {"smiles": "O=C(NC(=S)Nc1ccc(Cc2ccncc2)cc1)c1ccccc1", "Potency": "inconclusive: 50.1 µM [inhibitor, partial curve]"},
      {"smiles": "COC(=O)CCc1sc(Nc2ccc(F)c(F)c2F)nc1-c1ccc(OC)cc1", "Potency": "inactive"},
      {"smiles": "O=C(CCCCn1c(=O)[nH]c2ccccc2c1=O)NCCc1c[nH]c2ccccc12", "Potency": "inconclusive: 35.5 µM [inhibitor, partial curve, poor fit]"},
      {"smiles": "COc1ccc(-c2cnc([C@@H]3COCCN3C3CCCCC3)[nH]2)cc1", "Potency": "inactive"},
      {"smiles": "CCCCN1CCN(c2nc3c(c(=O)[nH]c(=O)n3C)n2Cc2ccccc2)CC1", "Potency": "inactive"},
      {"smiles": "Cc1ccc(-c2nc3ccccc3s2)cc1NC(=S)NC(=O)/C=C/c1ccco1", "Potency": "inconclusive: 25.1 µM [inhibitor, single point]"},
      {"smiles": "COc1ccc(OC)c(NC(=O)C2COc3ccccc3O2)c1", "note": "(stereo unspecified)", "Potency": "inactive"},
      {"smiles": "COc1ccc(N2CCCCS2(=O)=O)cc1S(=O)(=O)Nc1ccc(Cl)cc1", "Potency": "inconclusive: 56.2 µM [inhibitor, partial curve, poor fit]"},
      {"smiles": "CC(C)c1ccc(NNC(=O)C2CCC2)cc1", "Potency": "inconclusive: 112 µM [inhibitor, partial curve, poor fit]"},
      {"smiles": "COc1ccc(-c2noc([C@@H](C)NS(=O)(=O)CC(C)C)c2C(=O)O)cc1", "Potency": "inconclusive: 28.2 µM [inhibitor, full curve, poor fit]"}
    ]}
  ]
}
